Source: PubChem BioAssay AID2685 (National Center for Advancing Translational Sciences (NCATS), 2010)
The other results are listed elsewhere or left out. Further columns of the screen follow, without active or inactive calls. Most of these compounds were active or inconclusive in the main read-out, so they are no random draw. Potencies come from curve fits of mixed quality, noted in brackets.

Test: qHTS Assay for Lipid Storage Modulators in Drosophila S3 Cells;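 on cell number change: cells counted by Cell Tracker Red CMTPX staining in the red channel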
Details: BODIPY lipid droplet fluorescence, 18-24 h; for cell number change: measured here: cell count max response, cells fed with added oleic acid
How it was run: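 Laser-scanning cytometry quantifies lipid droplet accumulation (500–530 nm total intensity; droplet/cell object ratio) in oleic acid-fed (400 uM added) Drosophila S3 cells treated with a concentration series. 20 uM Triacsin C defined 100% inhibition.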

[1] = measured here: lipid fluorescence (Fed channel) AC50, cells fed with added oleic acid
[2] = measured here: cell number channel AC50, cells fed with added oleic acid

COCc1c(C(=O)NCCOc2ccc(Cl)cc2)oc2ccccc12
cell number change: -15.4% | AC50 [1]: 1.03 µM [falling, full curve, poor fit]

CC1CN(S(=O)(=O)c2cccc(C(=O)NCc3ccco3)c2)CC(C)O1 (centres undefined)
cell number change: -27.3%

CCc1nc2cc(CC(=O)O)ccc2o1
cell number change: 24.9% | AC50 [1]: 18.4 µM [rising, single point]

CCCCn1c(/C=N/Nc2nc3ccccc3[nH]2)nc2ccccc21
cell number change: -10.7% | AC50 [1]: 6.51 µM [falling, partial curve]

O=C(Nc1ccccn1)c1sc2cc([N+](=O)[O-])ccc2c1Cl
cell number change: -11.1% | AC50 [1]: 6.51 µM [falling, single point]

O=C(Cc1cccs1)N1CCN=C1SCc1ccccc1Cl
cell number change: -16.3% | AC50 [2]: 0.82 µM [falling, single point] | AC50 [1]: 0.731 µM [falling, single point]

CN(CC(=O)Nc1ccccc1C(F)(F)F)C(=O)c1ccc2c(=O)n3c(nc2c1)CCC3
cell number change: 1.44% | AC50 [1]: 29.1 µM [rising, single point]

Cc1ccccc1OCC(=O)N(Cc1ccco1)c1c(N)n(Cc2ccccc2)c(=O)[nH]c1=O
cell number change: -42.7% | AC50 [2]: 16.4 µM [falling, partial curve] | AC50 [1]: 0.366 µM [falling, full curve, poor fit]

O=C(Nc1cc(Cl)ccn1)C1CCN(S(=O)(=O)c2cccs2)CC1
cell number change: -0.512% | AC50 [1]: 0.651 µM [rising, full curve, poor fit]

COc1ccc(-n2ccc(=O)c3c2CCCC3=O)cc1
cell number change: 4.13% | AC50 [1]: 0.116 µM [rising, full curve, poor fit]

O=C(CCCCCn1c(=S)[nH]c2ccc(N3CCOCC3)cc2c1=O)NCc1ccc2c(c1)OCO2
cell number change: -68.5% | AC50 [2]: 32.6 µM [falling, single point]

COc1ccc(CCCNC(=O)C2CCC(=O)N(CCc3cccc(F)c3)C2)cc1 (centres undefined)
cell number change: 8.8% | AC50 [1]: 1.64 µM [rising, partial curve, poor fit]

COc1ccc(/C=C2\N=C(SC)NC2=O)cc1
cell number change: -76.7% | AC50 [2]: 29.1 µM [falling, partial curve, poor fit] | AC50 [1]: 0.231 µM [falling, full curve, poor fit]

O=C(Nc1nc(-c2ccccn2)cs1)Nc1ccc(F)cc1F
cell number change: 23.1% | AC50 [2]: 0.0731 µM [rising, full curve, poor fit] | AC50 [1]: 18.4 µM [falling, single point]

CCCCCCNC(=O)C(C#N)c1nc2ccccc2nc1N1CCOCC1 (centres undefined)
cell number change: -0.711%

COc1cccc(C(=O)N2CCC(C(=O)NCc3ccco3)CC2)c1
cell number change: 24.6% | AC50 [2]: 0.58 µM [rising, full curve] | AC50 [1]: 1.3 µM [rising, full curve]

Cc1ccc(C)c(OCCC(=O)OCC(=O)NC(=O)NC2CCCC2)c1
AC50 [1]: 6.51 µM [falling, single point]

O=C(NCc1ccccn1)C(=O)NCC1OCCCN1S(=O)(=O)c1cc(F)ccc1F (centres undefined)
cell number change: -5.87% | AC50 [1]: 0.146 µM [rising, partial curve, poor fit]

CN(CC(=O)Nc1cccc(F)c1)C(=O)Cn1c(=O)cnc2ccccc21
cell number change: -20.5%

COc1ccc(OCCNC(=S)Nc2cccc3ccccc23)cc1
AC50 [2]: 1.64 µM [rising, partial curve, poor fit] | AC50 [1]: 6.51 µM [rising, single point]

COc1ccc(CNS(=O)(=O)c2ccc3c(c2)NC(=O)C(C)S3)cc1 (centres undefined)
AC50 [1]: 2.91 µM [rising, single point]

CCCCCCCNC(=O)C1(CC2CC(c3cccc(Br)c3)=NO2)CCN(C(=O)OC(C)(C)C)CC1 (centres undefined)
cell number change: 5.69%

O=C(CCCCn1c(=O)c2ccccc2n(Cc2ccccc2F)c1=O)NC1CCN(Cc2ccccc2)CC1
cell number change: -29.4% | AC50 [2]: 1.64 µM [falling, full curve, poor fit] | AC50 [1]: 0.82 µM [falling, full curve]

COc1ccc(C2C(C(=O)N3CCCC3)c3cc(OC)c(OC)cc3C(=O)N2C)cc1OC (centres undefined)
AC50 [2]: 3.66 µM [falling, partial curve, poor fit]

CC1(C)Cc2c(sc(/N=C/N3CCCCCC3)c2C#N)C(C)(C)N1
cell number change: -48.2% | AC50 [2]: 29.1 µM [falling, single point]

CCOC(=O)c1c(NC(=O)CSC2=NN3CCCC(=O)N=C3S2)sc2c1CCCCC2
cell number change: 32% | AC50 [2]: 7.31 µM [rising, partial curve] | AC50 [1]: 8.2 µM [rising, partial curve]

Cc1ccc(-c2c(C)sc(=NC(=O)c3ccco3)n2C)cc1
cell number change: -23% | AC50 [1]: 29.1 µM [falling, single point]

CCN(CC)c1c([N+](=O)[O-])ncn1C
cell number change: -16.7% | AC50 [1]: 23.1 µM [falling, partial curve]

O=C(Nc1ccccc1C(=O)Nc1nnc(C(F)(F)F)s1)c1ccccc1
cell number change: -52% | AC50 [2]: 18.4 µM [falling, single point] | AC50 [1]: 23.1 µM [falling, single point]

O=C(Cn1nnc(-c2ccccc2)n1)NCc1ccco1
cell number change: -1.65% | AC50 [1]: 23.1 µM [falling, single point]

COc1ccc(Cn2c(CCCO)nc3ccccc32)cc1OC
cell number change: 144% | AC50 [2]: 29.1 µM [rising, single point]

COc1ccccc1CNC(=O)CN1C(=O)CSc2ccc(S(=O)(=O)N3CCCC3)cc21
cell number change: 12.5%

Cc1csc(NC(=O)c2cc3ccccc3o2)n1
cell number change: 12.8% | AC50 [1]: 13 µM [falling, partial curve]

CN(CC(=O)Nc1ccc(F)cc1)C(=O)COC(=O)/C=C/c1ccccc1[N+](=O)[O-]
cell number change: 13.1% | AC50 [1]: 0.00517 µM [rising, full curve, poor fit]

COC(=O)C(C)Sc1ncnc2c1nnn2-c1ccc(F)cc1 (centres undefined)
cell number change: -10.6% | AC50 [1]: 0.092 µM [falling, full curve, poor fit]

CN(c1ccccc1)S(=O)(=O)c1ccc(C(=O)Nc2ccncc2)cc1
cell number change: -12.9%

COc1cc(/C=C/C(O)=C/C(=O)/C=C/c2ccc(O)cc2)ccc1O
cell number change: -39% | AC50 [2]: 14.6 µM [falling, partial curve] | AC50 [1]: 29.1 µM [falling, single point]
